Source: the supplement of paper PMC12067093, “Discovery and optimisation of a covalent ligand for TRIM25 and its application to targeted protein ubiquitination” (Chemical Science, 2025)
Some of the results follow.

Protein sequences, listed by entry. Tags and fused reporters are not part of them. Lines headed by an entry give the natural chain unless they say otherwise; changes in a name come on top.
UniProt P17568, whole entry, looked up: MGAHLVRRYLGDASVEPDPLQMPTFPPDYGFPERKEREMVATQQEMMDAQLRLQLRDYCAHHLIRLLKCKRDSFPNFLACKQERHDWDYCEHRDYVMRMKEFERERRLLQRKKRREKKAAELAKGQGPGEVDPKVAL
UniProt Q96PY6: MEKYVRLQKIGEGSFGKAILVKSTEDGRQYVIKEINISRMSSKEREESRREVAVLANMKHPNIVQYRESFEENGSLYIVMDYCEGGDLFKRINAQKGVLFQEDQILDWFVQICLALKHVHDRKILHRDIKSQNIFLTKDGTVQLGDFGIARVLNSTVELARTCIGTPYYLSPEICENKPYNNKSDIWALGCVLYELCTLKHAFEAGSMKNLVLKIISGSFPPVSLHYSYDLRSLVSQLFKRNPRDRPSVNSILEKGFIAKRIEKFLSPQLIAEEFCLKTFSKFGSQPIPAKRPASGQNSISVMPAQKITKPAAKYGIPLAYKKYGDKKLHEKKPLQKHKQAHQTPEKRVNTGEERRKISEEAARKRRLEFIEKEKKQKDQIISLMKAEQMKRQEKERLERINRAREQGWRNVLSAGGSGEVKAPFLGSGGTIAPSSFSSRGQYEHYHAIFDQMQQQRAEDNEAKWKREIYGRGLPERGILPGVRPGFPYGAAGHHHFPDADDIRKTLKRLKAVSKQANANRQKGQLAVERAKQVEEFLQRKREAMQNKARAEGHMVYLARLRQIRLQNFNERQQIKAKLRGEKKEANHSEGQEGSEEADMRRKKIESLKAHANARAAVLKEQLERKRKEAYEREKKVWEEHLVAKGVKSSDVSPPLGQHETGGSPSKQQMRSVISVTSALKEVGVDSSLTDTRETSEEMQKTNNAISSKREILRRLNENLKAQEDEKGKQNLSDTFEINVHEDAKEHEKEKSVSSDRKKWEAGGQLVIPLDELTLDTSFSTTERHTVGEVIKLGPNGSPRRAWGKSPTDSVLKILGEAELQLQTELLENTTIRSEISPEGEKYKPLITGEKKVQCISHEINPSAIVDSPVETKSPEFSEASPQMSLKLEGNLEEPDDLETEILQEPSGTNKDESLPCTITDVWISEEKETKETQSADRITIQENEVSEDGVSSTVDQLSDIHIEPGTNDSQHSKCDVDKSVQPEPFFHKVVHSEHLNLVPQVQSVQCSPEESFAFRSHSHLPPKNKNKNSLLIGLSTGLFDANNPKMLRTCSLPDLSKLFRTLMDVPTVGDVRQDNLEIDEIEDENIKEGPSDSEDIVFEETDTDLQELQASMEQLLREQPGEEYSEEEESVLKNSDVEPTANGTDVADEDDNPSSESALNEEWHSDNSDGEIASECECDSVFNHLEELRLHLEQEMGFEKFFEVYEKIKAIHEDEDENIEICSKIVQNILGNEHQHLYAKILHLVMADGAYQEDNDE
UniProt P08651, whole entry, looked up: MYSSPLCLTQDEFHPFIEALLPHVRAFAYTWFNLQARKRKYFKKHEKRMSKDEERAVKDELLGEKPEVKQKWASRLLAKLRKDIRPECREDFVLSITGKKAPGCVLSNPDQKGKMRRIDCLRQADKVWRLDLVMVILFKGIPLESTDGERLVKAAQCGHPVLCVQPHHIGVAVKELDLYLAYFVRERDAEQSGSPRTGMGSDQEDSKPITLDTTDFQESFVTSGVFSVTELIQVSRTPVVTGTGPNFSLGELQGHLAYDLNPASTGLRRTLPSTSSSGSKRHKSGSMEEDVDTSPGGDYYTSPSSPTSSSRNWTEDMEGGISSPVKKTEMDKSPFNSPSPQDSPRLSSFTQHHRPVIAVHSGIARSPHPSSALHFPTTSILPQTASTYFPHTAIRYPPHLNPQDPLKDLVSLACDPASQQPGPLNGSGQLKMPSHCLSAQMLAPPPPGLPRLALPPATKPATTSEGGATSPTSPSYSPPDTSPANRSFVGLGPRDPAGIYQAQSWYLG
UniProt Q8WX92, whole entry, looked up: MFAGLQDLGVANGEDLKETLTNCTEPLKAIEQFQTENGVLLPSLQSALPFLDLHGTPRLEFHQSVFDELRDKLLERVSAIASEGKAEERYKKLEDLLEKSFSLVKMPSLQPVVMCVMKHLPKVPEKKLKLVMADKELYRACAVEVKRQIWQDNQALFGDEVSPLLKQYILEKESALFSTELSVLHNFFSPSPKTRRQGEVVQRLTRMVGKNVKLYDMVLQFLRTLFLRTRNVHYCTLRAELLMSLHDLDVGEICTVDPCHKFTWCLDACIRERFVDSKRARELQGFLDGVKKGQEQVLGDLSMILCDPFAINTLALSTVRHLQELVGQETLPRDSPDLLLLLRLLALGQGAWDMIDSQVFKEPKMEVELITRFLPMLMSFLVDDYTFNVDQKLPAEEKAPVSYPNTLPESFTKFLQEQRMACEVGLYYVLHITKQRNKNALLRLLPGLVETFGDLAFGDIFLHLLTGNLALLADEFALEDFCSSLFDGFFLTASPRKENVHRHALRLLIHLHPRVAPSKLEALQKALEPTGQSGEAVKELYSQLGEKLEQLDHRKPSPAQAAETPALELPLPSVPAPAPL
UniProt Q12986: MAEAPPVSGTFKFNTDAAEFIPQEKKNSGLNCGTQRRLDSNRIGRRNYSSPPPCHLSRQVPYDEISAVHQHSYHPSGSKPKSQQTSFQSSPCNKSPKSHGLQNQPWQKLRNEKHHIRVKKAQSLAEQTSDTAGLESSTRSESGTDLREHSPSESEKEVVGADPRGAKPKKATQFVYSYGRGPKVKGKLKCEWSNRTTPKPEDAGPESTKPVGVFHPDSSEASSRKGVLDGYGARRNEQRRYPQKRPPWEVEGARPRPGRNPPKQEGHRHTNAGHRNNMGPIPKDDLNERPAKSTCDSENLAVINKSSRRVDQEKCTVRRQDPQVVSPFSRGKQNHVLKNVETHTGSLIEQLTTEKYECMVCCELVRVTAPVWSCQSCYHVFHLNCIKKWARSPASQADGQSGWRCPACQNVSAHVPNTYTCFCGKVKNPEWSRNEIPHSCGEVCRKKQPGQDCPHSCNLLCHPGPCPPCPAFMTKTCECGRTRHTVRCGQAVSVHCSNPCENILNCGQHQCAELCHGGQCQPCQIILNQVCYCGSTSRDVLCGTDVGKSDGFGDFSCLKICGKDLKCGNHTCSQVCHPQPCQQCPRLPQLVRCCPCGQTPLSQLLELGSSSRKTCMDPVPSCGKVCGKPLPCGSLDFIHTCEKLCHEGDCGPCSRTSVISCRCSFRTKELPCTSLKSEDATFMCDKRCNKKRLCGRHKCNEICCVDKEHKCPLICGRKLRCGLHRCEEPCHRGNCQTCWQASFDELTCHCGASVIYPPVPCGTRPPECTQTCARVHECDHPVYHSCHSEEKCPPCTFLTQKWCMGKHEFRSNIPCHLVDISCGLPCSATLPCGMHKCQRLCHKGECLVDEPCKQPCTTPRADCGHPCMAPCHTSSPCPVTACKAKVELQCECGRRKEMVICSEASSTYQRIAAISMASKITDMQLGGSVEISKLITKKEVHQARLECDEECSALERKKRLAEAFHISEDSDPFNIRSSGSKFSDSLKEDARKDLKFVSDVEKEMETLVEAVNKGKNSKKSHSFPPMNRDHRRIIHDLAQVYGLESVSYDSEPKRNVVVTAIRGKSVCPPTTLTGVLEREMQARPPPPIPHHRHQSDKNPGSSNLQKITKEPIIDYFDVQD
UniProt Q96IV0: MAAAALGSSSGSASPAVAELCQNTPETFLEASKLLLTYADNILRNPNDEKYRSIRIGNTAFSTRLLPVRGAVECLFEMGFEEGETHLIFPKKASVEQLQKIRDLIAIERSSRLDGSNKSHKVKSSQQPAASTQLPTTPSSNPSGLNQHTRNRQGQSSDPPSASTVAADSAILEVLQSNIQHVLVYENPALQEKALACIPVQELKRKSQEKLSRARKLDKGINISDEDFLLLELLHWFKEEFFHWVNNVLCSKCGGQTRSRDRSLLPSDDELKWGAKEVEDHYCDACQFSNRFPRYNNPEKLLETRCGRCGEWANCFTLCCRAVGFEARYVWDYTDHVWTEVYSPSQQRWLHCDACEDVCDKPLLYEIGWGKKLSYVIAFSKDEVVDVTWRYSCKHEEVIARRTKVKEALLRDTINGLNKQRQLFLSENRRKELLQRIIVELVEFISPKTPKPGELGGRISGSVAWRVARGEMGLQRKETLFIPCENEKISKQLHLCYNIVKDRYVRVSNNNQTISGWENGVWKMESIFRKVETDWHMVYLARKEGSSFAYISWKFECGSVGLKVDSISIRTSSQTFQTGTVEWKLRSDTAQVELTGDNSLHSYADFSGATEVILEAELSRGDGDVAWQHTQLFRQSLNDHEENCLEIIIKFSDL
UniProt Q9UBB6: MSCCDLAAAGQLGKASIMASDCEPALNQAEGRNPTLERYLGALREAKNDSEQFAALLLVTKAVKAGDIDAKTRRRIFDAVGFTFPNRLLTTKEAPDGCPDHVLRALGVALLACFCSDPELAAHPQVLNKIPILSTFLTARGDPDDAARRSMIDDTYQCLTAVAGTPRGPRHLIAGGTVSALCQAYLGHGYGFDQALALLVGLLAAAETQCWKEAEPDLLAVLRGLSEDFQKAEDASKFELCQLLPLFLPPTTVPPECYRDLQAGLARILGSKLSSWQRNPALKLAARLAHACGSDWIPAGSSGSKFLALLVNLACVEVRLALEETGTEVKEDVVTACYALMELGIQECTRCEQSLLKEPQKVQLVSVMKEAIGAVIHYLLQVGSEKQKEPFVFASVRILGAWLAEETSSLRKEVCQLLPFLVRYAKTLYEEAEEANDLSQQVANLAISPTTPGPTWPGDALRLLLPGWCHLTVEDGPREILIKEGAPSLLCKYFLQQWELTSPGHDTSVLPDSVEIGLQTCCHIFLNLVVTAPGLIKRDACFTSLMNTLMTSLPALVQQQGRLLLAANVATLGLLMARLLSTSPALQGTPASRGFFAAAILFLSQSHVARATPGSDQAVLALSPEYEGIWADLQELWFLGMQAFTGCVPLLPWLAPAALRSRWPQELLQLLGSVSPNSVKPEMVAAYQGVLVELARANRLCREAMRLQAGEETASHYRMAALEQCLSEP
UniProt Q9Y6M9, whole entry: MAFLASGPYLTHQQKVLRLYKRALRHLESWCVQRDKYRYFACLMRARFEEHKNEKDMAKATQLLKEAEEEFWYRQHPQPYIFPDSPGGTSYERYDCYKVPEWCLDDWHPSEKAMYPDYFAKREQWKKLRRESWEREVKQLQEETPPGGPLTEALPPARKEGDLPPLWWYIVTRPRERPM
UniProt Q969V3: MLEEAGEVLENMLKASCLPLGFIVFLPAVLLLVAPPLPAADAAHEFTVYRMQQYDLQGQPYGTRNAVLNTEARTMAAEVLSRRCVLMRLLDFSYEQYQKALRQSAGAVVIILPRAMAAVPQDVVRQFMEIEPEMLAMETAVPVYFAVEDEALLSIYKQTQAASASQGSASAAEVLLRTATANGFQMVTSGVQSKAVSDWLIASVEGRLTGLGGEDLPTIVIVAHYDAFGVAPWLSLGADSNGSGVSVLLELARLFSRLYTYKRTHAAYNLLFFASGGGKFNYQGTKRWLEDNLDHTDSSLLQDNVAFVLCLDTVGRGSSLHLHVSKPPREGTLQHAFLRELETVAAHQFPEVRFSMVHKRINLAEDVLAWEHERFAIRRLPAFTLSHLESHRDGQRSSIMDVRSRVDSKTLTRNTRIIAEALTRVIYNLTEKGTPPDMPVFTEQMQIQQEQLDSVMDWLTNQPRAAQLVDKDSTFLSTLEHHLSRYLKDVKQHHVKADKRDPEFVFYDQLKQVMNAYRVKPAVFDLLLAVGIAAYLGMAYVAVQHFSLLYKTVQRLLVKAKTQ
UniProt Q9UFN0: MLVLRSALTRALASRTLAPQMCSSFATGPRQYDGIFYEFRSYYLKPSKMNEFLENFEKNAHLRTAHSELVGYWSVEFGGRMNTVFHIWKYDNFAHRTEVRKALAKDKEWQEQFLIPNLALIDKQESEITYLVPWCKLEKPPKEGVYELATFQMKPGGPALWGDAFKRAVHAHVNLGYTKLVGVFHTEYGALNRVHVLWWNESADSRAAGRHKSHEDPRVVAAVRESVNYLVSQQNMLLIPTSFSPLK
UniProt O43639, whole entry: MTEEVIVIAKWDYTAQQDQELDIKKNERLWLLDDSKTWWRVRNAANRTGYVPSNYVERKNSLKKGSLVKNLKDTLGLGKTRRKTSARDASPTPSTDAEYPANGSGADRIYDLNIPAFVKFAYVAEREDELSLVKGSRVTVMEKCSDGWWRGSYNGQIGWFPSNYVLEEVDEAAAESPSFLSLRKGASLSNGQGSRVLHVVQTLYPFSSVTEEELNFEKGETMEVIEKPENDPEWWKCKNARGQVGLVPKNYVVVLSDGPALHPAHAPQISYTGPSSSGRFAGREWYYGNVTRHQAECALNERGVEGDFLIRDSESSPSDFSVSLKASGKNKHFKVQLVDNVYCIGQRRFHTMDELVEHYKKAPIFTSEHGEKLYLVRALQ
UniProt Q9NX24: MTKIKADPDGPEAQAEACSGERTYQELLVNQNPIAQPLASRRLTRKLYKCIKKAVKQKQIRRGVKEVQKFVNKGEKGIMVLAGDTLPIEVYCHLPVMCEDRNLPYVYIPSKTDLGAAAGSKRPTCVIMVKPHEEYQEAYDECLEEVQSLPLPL

compound: CC1Cc2ccccc2N1C(=O)C1CCCN(C1)C(=O)CCl (mixture of isomers) [TRIM25 ligand 11 (diastereomer mixture)]; assay: probe-labelled cysteine peptide fold change vs DMSO (competition) (log2 fold change); higher = less target engagement (more negative = stronger competition); details: 10 µM; THP-1; incubation time: 4 h
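Further: competitive chemoproteomic profiling in live THP-1 cells with an iodoacetamide desthiobiotin (IA-DTB) probe, comparing probe-labelled peptide intensities in compound-treated cells against DMSO-treated controls.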

Row | Target | probe-labelled cysteine peptide fold change
1 | NDUFB7_P17568_90_HDWDYCEHR (UniProt P17568) | 0.161
2 | NEK1_Q96PY6_276_FLSPQLIAEEFCLK (UniProt Q96PY6) | 0.0381
3 | NFIC_P08651_157_AAQCGHPVLCVQPHHIGVAVK (UniProt P08651) | -0.0931
4 | NELFB_Q8WX92_235_NVHYCTLR (UniProt Q8WX92) | 0.148
5 | NCOA7_Q8NI08_55_CNIAVEEEYMTDEK (UniProt Q8NI08) | 0.0429
6 | NFX1_Q12986_684_SEDATFMCDK (UniProt Q12986) | -0.148
7 | NDUFA8_P51970_66_CALDFFR (UniProt P51970) | -0.0321
8 | NFATC3_Q12968_537_VLEIPLLPENNMSASIDCAGILK (UniProt Q12968) | -0.0192
9 | NIT1_Q86X76_292_CSEGPGLCLAR (UniProt Q86X76) | -0.0627
10 | NGLY1_Q96IV0_283_EVEDHYCDACQFSNRFPR (UniProt Q96IV0) | -0.198
11 | NCOA5_Q9HCD5_200_FDAERPVDCSVIVVNK (UniProt Q9HCD5) | -0.00264
12 | NCDN_Q9UBB6_98_EAPDGCPDHVLR (UniProt Q9UBB6) | -0.0446
13 | NIPBL_Q6KC79_1066_ELPPELLAEIESTMPLCER (UniProt Q6KC79) | 0.327
14 | NELFCD_Q8IXH7_398_AVETVHNLCCNENK (UniProt Q8IXH7) | 0.00283
15 | NIT2_Q9NQR4_44_IVSLPECFNSPYGAK (UniProt Q9NQR4) | -0.0155
16 | NDUFV1_P49821_238+255_LKPPFPADVGVFGCPTTVANVETVAVSPTICR (UniProt P49821) | -0.0727
17 | NID1_P14543_685_EGSPDALQNPCYIGTHGCDTNAACRPGPR (UniProt P14543) | -0.13
18 | NDUFB9_Q9Y6M9_103_VPEWCLDDWHPSEK (UniProt Q9Y6M9) | 0.267
19 | NCLN_Q969V3_84_RCVLMR (UniProt Q969V3) | -0.0469
20 | NGLY1_Q96IV0_484_ETLFIPCENEK (UniProt Q96IV0) | 0.107

Row | Target | probe-labelled cysteine peptide fold change
21 | NIPSNAP3A_Q9UFN0_135_QESEITYLVPWCK (UniProt Q9UFN0) | 0.0894
22 | NCKIPSD_Q9NZQ3_412_CYLEELLHILTDADPEVCKK (UniProt Q9NZQ3) | -0.188
23 | NCK2_O43639_343_VQLVDNVYCIGQR (UniProt O43639) | 0.0813
24 | NIT1_Q86X76_67_TCAELVR (UniProt Q86X76) | -0.0774
25 | NEK7_Q8TDX7_146_YFVQLCSALEHMHSR (UniProt Q8TDX7) | -0.148
26 | NFX1_Q12986_423_CPACQNVSAHVPNTYTCFCGK (UniProt Q12986) | 0.243
27 | NFX1_Q12986_778_VHECDHPVYHSCHSEEK (UniProt Q12986) | 0.0918
28 | NFIC_P08651_104_KAPGCVLSNPDQK (UniProt P08651) | -0.0478
29 | NCOA7_Q8NI08_762_STCSYYEDEDEEVLPVLRPHSALLENMHIEQLAR (UniProt Q8NI08) | 0.0534
30 | NFKB2_Q00653_432_TPQCEPQAPEMLQR (UniProt Q00653) | -0.124
31 | NHP2_Q9NX24_18_ADPDGPEAQAEACSGER (UniProt Q9NX24) | -0.227
32 | NELFA_Q9H3P2_471_ENPCQEQGDVIQIK (UniProt Q9H3P2) | 0.138
33 | NCKIPSD_Q9NZQ3_700_ILNEEETSPQCQMDR (UniProt Q9NZQ3) | 0.144
34 | NDC80_O14777_100_QLCEFLTENGYAHNVSMK (UniProt O14777) | -0.0826
35 | NEURL4_Q96JN8_527_LLFHPNCGQK (UniProt Q96JN8) | -0.0963
36 | NFKB1_P19838_161_MTEACIR (UniProt P19838) | -0.0373
37 | NET1_Q7Z628_267_GYCSNQLAAK (UniProt Q7Z628) | 0.0505
38 | NDUFA8_P51970_110_FDECVLDK (UniProt P51970) | -0.116
39 | NCOR2_Q9Y618_1289_GHVLSYEGGMSVTQCSK (UniProt Q9Y618) | -0.0557
40 | NDUFA10_O95299_67_VITVDGNICTGK (UniProt O95299) | -0.075

same assay, conditions: 50 µM; THP-1; incubation time: 4 h

Row | Target | probe-labelled cysteine peptide fold change
41 | NDUFB7_P17568_90_HDWDYCEHR (UniProt P17568) | 0.191
42 | NEK1_Q96PY6_276_FLSPQLIAEEFCLK (UniProt Q96PY6) | 0.161
43 | NFIC_P08651_157_AAQCGHPVLCVQPHHIGVAVK (UniProt P08651) | -0.0631
44 | NELFB_Q8WX92_235_NVHYCTLR (UniProt Q8WX92) | 0.179
45 | NCOA7_Q8NI08_55_CNIAVEEEYMTDEK (UniProt Q8NI08) | -0.0643
46 | NFX1_Q12986_684_SEDATFMCDK (UniProt Q12986) | -0.0603
47 | NDUFA8_P51970_66_CALDFFR (UniProt P51970) | 0.114
48 | NFATC3_Q12968_537_VLEIPLLPENNMSASIDCAGILK (UniProt Q12968) | -0.0905
49 | NIT1_Q86X76_292_CSEGPGLCLAR (UniProt Q86X76) | 0.134
50 | NGLY1_Q96IV0_283_EVEDHYCDACQFSNRFPR (UniProt Q96IV0) | 0.05
51 | NCOA5_Q9HCD5_200_FDAERPVDCSVIVVNK (UniProt Q9HCD5) | 0.0985
52 | NCDN_Q9UBB6_98_EAPDGCPDHVLR (UniProt Q9UBB6) | 0.0475
53 | NIPBL_Q6KC79_1066_ELPPELLAEIESTMPLCER (UniProt Q6KC79) | 0.319
54 | NELFCD_Q8IXH7_398_AVETVHNLCCNENK (UniProt Q8IXH7) | 0.0285
55 | NIT2_Q9NQR4_44_IVSLPECFNSPYGAK (UniProt Q9NQR4) | 0.0434
56 | NDUFV1_P49821_238+255_LKPPFPADVGVFGCPTTVANVETVAVSPTICR (UniProt P49821) | 0.0828
57 | NID1_P14543_685_EGSPDALQNPCYIGTHGCDTNAACRPGPR (UniProt P14543) | 0.291
58 | NDUFB9_Q9Y6M9_103_VPEWCLDDWHPSEK (UniProt Q9Y6M9) | 0.0236
59 | NCLN_Q969V3_84_RCVLMR (UniProt Q969V3) | -0.0231
60 | NGLY1_Q96IV0_484_ETLFIPCENEK (UniProt Q96IV0) | -0.023

Row | Target | probe-labelled cysteine peptide fold change
61 | NIPSNAP3A_Q9UFN0_135_QESEITYLVPWCK (UniProt Q9UFN0) | -0.0359
62 | NCKIPSD_Q9NZQ3_412_CYLEELLHILTDADPEVCKK (UniProt Q9NZQ3) | 0.0178
63 | NCK2_O43639_343_VQLVDNVYCIGQR (UniProt O43639) | 0.115
64 | NIT1_Q86X76_67_TCAELVR (UniProt Q86X76) | 0.172
65 | NEK7_Q8TDX7_146_YFVQLCSALEHMHSR (UniProt Q8TDX7) | 0.00438
66 | NFX1_Q12986_423_CPACQNVSAHVPNTYTCFCGK (UniProt Q12986) | 0.36
67 | NFX1_Q12986_778_VHECDHPVYHSCHSEEK (UniProt Q12986) | -0.0905
68 | NFIC_P08651_104_KAPGCVLSNPDQK (UniProt P08651) | -0.0863
69 | NCOA7_Q8NI08_762_STCSYYEDEDEEVLPVLRPHSALLENMHIEQLAR (UniProt Q8NI08) | 0.178
70 | NFKB2_Q00653_432_TPQCEPQAPEMLQR (UniProt Q00653) | -0.194
71 | NHP2_Q9NX24_18_ADPDGPEAQAEACSGER (UniProt Q9NX24) | -0.308
72 | NELFA_Q9H3P2_471_ENPCQEQGDVIQIK (UniProt Q9H3P2) | -0.15
73 | NCKIPSD_Q9NZQ3_700_ILNEEETSPQCQMDR (UniProt Q9NZQ3) | -0.0673
74 | NDC80_O14777_100_QLCEFLTENGYAHNVSMK (UniProt O14777) | -0.0173
75 | NEURL4_Q96JN8_527_LLFHPNCGQK (UniProt Q96JN8) | -0.0727
76 | NFKB1_P19838_161_MTEACIR (UniProt P19838) | 0.0321
77 | NET1_Q7Z628_267_GYCSNQLAAK (UniProt Q7Z628) | 0.103
78 | NDUFA8_P51970_110_FDECVLDK (UniProt P51970) | 0.13
79 | NCOR2_Q9Y618_1289_GHVLSYEGGMSVTQCSK (UniProt Q9Y618) | -0.193
80 | NDUFA10_O95299_67_VITVDGNICTGK (UniProt O95299) | 0.0544
